The values below come from PubChem BioAssay AID445 (National Center for Advancing Translational Sciences (NCATS), 2006).

Molecules are shown by their SMILES. The list shows a part of the results. Shown are side measurements of this screen, not its main read-out; they come without a call. Compounds called inactive in the main read-out are mostly missing here. Potencies come from curve fits of mixed quality, noted in brackets.

The AC50 is the midpoint of the concentration-response curve, whichever way the signal moves.

A short description of this assay: IkB Signaling. The note with it: ABC-DLBCL IkBa-CBG/CBR dual luciferase ratio (green luciferase fused to IkBa over red control in OCI-Ly3 lymphoma cells), 4 h; measured here: control luc red channel unless noted. Summed up: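 In this assay, an IκBα–CBG68 fusion accumulates when IKK-driven degradation is blocked; native CBR normalizes for cell number. OCI-Ly3 cells were treated 4 h with compound and doxycycline, then green and red light read after Chroma-Glo addition.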
Regarding `O=c1oc2ccc(Br)cc2cc1-c1nc(-c2ccccc2)no1`, the AC50 was 0.158 µM [falling, full curve, poor fit]. The result for `CC(C)OCCCN1C(=O)c2[nH]nc(-c3ccccc3O)c2C1c1cccc(Cl)c1` (centres undefined) reads 20 µM [falling, partial curve]; that for `Cc1cccc(NC(=O)CSc2nc3c(oc4ccccc43)c(=O)n2C(C)C)c1`, 39.8 µM [falling, single point]; that for `CC(C)c1nnc(NC(=O)CSc2nc3ccccc3s2)s1`, 25.1 µM [falling, partial curve].

As to `O=c1c2cnn(-c3ccccc3)c2nc(-c2ccco2)n1-c1ccccc1`, the AC50 is 7.94 µM [falling, partial curve]. Take `COCCNC(=O)CCCn1c(SCC(=O)Nc2cccc(C)c2)nc2c(sc3ccccc32)c1=O`: the AC50 was 12.6 µM [falling, partial curve]. Next, `O=C(c1ccc(CNS(=O)(=O)c2ccccc2)cc1)N1CCN(c2ccccn2)CC1`: 15.8 µM [falling, partial curve]; `Cc1cccc(N2CCN(CCCNc3ncnc4onc(-c5ccc(F)cc5)c34)CC2C)c1` (centres undefined): 12.6 µM [falling, partial curve]; `O=C(CCNS(=O)(=O)c1ccc2c(c1)CCN2C(=O)C1CC1)Nc1ccc(OC(F)(F)F)cc1`: 0.1 µM [falling, full curve]. For `COc1cccc(C(=O)Nc2ccc3nc(SCCOc4ccccc4)sc3c2)c1`, the AC50 was 0.501 µM [falling, full curve]. Regarding `CCc1ccc2oc(-c3cc(NC(=O)c4cccs4)ccc3Cl)nc2c1`, the AC50 is 20 µM [falling, single point]. Regarding `COC(=O)C1CCN(C(=O)COc2ccc(Cl)cc2)CC1`, the AC50 was 2 µM [falling, full curve]. Consider `COC(=O)CN1C(=O)CSc2ccc(S(=O)(=O)Nc3ccc(C)c(Cl)c3)cc21`, for which the AC50 was 39.8 µM [falling, single point]. As to `CCOCC(=O)Nc1nc2ccc(C)cc2s1`, the AC50 was 12.6 µM [falling, partial curve]. Take `CCCCCOc1ccc(/C=C/C(=O)Nc2sc3c(c2C(=O)OCC)CCC3)cc1OC`: the AC50 was 15.8 µM [falling, single point]. Take `CNC(=O)c1cnc2sc(N3CCC(C)CC3)nn2c1=O`: the AC50 was 39.8 µM [rising, single point].

`CCCCOc1cccc(C2c3c(-c4cc(C)ccc4O)n[nH]c3C(=O)N2CCOC)c1` (centres undefined): the AC50 is 31.6 µM [falling, single point]. With `CCCN1C(C(=O)c2ccccc2)=C(OC(=O)COc2ccc(C)cc2)c2ccccc2S1(=O)=O`, the AC50 is 12.6 µM [falling, partial curve].

On to `Cc1ccc(NC(=O)C2CCCN(S(=O)(=O)c3cccs3)C2)c(C)c1` (centres undefined), for which the AC50 is 10 µM [falling, partial curve]. Next, `COc1ccc(S(=O)(=O)N(CC(=O)Nc2ccc(Br)cc2)Cc2ccccc2)cc1`: 5.01 µM [rising, partial curve]; `CCCCN(CCCC)C(=O)c1c[nH]c2ccc(S(=O)(=O)Nc3cccc(Cl)c3C)cc2c1=O`: 10 µM [falling, partial curve]. Turning to `CCN1CCN(C(=O)Cn2ncc3c4ccccc4n(Cc4c(C)cc(C)cc4C)c3c2=O)CC1`, the AC50 was 25.1 µM [falling, single point].

Take `COc1cccc2cc(C(=O)Nc3ccc(C)cc3)c(=O)oc12`: the AC50 is 0.0794 µM [falling, full curve]. Turning to `Cc1ccc2c(=O)cc(C(=O)Nc3sc4c(c3C(=O)NCc3cccnc3)CCCC4)oc2c1`, the AC50 is 39.8 µM [falling, single point].

For `O=C(NC1CCCCC1)c1noc2c1CCCCC2`, the AC50 was 3.98 µM [falling, partial curve]. Regarding `O=C(CSc1ncnc2c1cnn2-c1ccccc1)Nc1ccc2c(c1)OCO2`, the AC50 was 3.98 µM [falling, full curve, poor fit].

`Cc1ccc(CN(C(=O)COc2ccc(F)cc2)C2CCS(=O)(=O)C2)o1` (centres undefined): the AC50 is 2.51 µM [falling, partial curve].

For the molecule `Cc1ccc(-n2ncc(C(=O)NCCN3CCC(Cc4ccccc4)CC3)c2C2CCN(C(=O)OC(C)(C)C)CC2)cc1`, the AC50 was 15.8 µM [falling, partial curve].

In the case of `Cc1cc(NS(=O)(=O)c2ccc(NC(=O)COc3cc(C)c(Br)cc3C(C)C)cc2)no1`, the AC50 is 12.6 µM [falling, partial curve]. With `CCOC(=O)c1ccc(NC(=O)c2c(O)c3ccccc3n(C)c2=O)cc1`, the AC50 was 0.0794 µM [falling, full curve]. As for `CCCCNC(=O)CSc1nc2cc3c(cc2c(=O)n1CCCC(=O)NCc1ccc(OC)cc1)OCO3`, the AC50 was 2 µM [rising, full curve, poor fit]. With `O=C1CN(C(=O)c2ccc(S(=O)(=O)N3CCCC3)cc2)C(c2ccc(F)cc2)c2cc(Br)ccc2N1` (centres undefined), the AC50 was 39.8 µM [falling, single point]. The result for `CN1CCN(c2nc3cc(C(F)(F)F)ccc3n3cccc23)CC1` reads 31.6 µM [falling, single point]; that for `COC(=O)c1ccccc1NC(=O)NCc1ccc2c(c1)CCN2C(=O)c1ccccc1`, 25.1 µM [falling, partial curve, poor fit].

With `Cc1ccc2c(c1)N(C(=O)N1CCC(C(=O)Nc3cccc(F)c3)CC1)CCO2`, the AC50 was 20 µM [falling, partial curve, poor fit]. For `COc1ccccc1Nc1cc(C(=O)NCCCN(C)C2CCCCC2)c2ccccc2n1`, the AC50 is 31.6 µM [falling, partial curve, poor fit]. Consider `Cc1ccc2c(c1)N(C(=O)CCC(=O)NCc1ccccc1F)CC(C)O2` (centres undefined), for which the AC50 was 2 µM [rising, partial curve, poor fit]. `CCOC(=O)c1ccc2c(c1)N(Cc1cc(C)ccc1C)C(=O)c1ccccc1S2(=O)=O`: the AC50 was 7.94 µM [rising, single point]. Regarding `Cc1cc(C)cc(NC(=O)[C@H]2O[C@@H]3OC(C)(C)O[C@@H]3[C@H]3OC(C)(C)O[C@H]32)c1`, the AC50 is 20 µM [falling, partial curve].
